Reference: PubChem BioAssay AID1259424 (University of Nebraska Medical Center, 2018)
Here is a random part of about 14,000 deposited reagents. 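Higher correlation or smaller distance means closer resemblance to KSR1 loss; control wells, including KSR1 knockdowns, recur on many plates.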 Further read-outs or replicates are left out here. The record does not give: the time to read-out.

Aim: 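Find knockdowns that reproduce the expression shifts seen after KSR1 loss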 (primary screen)
Cell system: human HCT116 colon cancer cells
Knock-down reagent: siRNA pool against human genes, 50 nM
Detection: 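Six signature mRNAs by branched-DNA multiplex assay, scaled to two housekeeping genes and non-targeting median, log2; matched to mean KSR1 knockdown profile by Pearson correlation and euclidean distance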
Scale: mean correlation with KSR1 profile: higher = expression change more like KSR1 knockdown; mean distance from KSR1 profile: higher = expression change less like KSR1 knockdown

With knock-down of ADCY2 (adenylate cyclase 2) [SID364001732], the screen gave mean correlation with KSR1 profile -0.134; mean distance from KSR1 profile 2.07. For RAB38 (RAB38, member RAS oncogene family) [SID364002397], the entry reads mean correlation with KSR1 profile -0.49; mean distance from KSR1 profile 3.68. For PIGK (phosphatidylinositol glycan anchor biosynthesis class K) [SID363996384] the deposit lists mean correlation with KSR1 profile -0.382; mean distance from KSR1 profile 2.67. Against ENTPD7 (ectonucleoside triphosphate diphosphohydrolase 7) [SID364001623] the deposit lists mean correlation with KSR1 profile 0.759; mean distance from KSR1 profile 2.88. For NRXN2 (neurexin 2) [SID363999292] the deposit lists mean correlation with KSR1 profile -0.604; mean distance from KSR1 profile 2.3. PTBP2 (polypyrimidine tract binding protein 2) [SID364002077] scored mean correlation with KSR1 profile -0.0907; mean distance from KSR1 profile 1.68.

With knock-down of ADNP2 (ADNP homeobox 2) [SID363999193] the results were mean correlation with KSR1 profile 0.574; mean distance from KSR1 profile 1.89. Depletion of CYTIP (cytohesin 1 interacting protein) [SID363995282] gave: mean correlation with KSR1 profile -0.569; mean distance from KSR1 profile 1.66. PSCA (prostate stem cell antigen) [SID363996563] scored mean correlation with KSR1 profile 0.399; mean distance from KSR1 profile 3.45. Against RYK (receptor like tyrosine kinase) [SID363994109] the deposit lists mean correlation with KSR1 profile 0.376; mean distance from KSR1 profile 1.61. Knock-down of RTL10 (retrotransposon Gag like 10) [SID364002926] gave: mean correlation with KSR1 profile -0.279; mean distance from KSR1 profile 3.43. TAL1 [SID363994325] showed mean correlation with KSR1 profile 0.159; mean distance from KSR1 profile 1.52.

Against CMIP (c-Maf inducing protein) [SID364003381], the entry reads mean correlation with KSR1 profile 0.181; mean distance from KSR1 profile 2.26.

2 entries already listed, sorted by “mean distance from KSR1 profile”, lowest first:
PTBP2 (polypyrimidine tract binding protein 2) [SID364002077] — mean correlation with KSR1 profile = -0.0907; mean distance from KSR1 profile = 1.68
ADNP2 (ADNP homeobox 2) [SID363999193] — mean correlation with KSR1 profile = 0.574; mean distance from KSR1 profile = 1.89

Next reagents:
Knock-down of DDX25 (DEAD-box helicase 25) [SID363998388] resulted in: mean correlation with KSR1 profile -0.173; mean distance from KSR1 profile 3.34. After knock-down of SLC39A4 [SID364000511], the screen gave mean correlation with KSR1 profile -0.43; mean distance from KSR1 profile 2.37. Depletion of ADCYAP1R1 (ADCYAP receptor type I) [SID363992412] came out at: mean correlation with KSR1 profile 0.83; mean distance from KSR1 profile 0.961. Silencing of KCNB1 (potassium voltage-gated channel subfamily B member 1) [SID363995916] resulted in: mean correlation with KSR1 profile -0.0355; mean distance from KSR1 profile 1.9. For SCTR (secretin receptor) [SID363994131], the entry reads mean correlation with KSR1 profile 0.702; mean distance from KSR1 profile 2.67. CRABP1 (cellular retinoic acid binding protein 1) [SID363995363] scored mean correlation with KSR1 profile -0.278; mean distance from KSR1 profile 2.58.

For CHRNA6 (cholinergic receptor nicotinic alpha 6 subunit) [SID363995200], the values are mean correlation with KSR1 profile -0.442; mean distance from KSR1 profile 1.51. Against SSNA1 (SS nuclear autoantigen 1) [SID363994798], the values are mean correlation with KSR1 profile 0.519; mean distance from KSR1 profile 4.38. Against F12 (coagulation factor XII) [SID363991828], the values are mean correlation with KSR1 profile 0.428; mean distance from KSR1 profile 3.39. Silencing of RPL35A (ribosomal protein L35a) [SID363992279] resulted in: mean correlation with KSR1 profile -0.00665; mean distance from KSR1 profile 4.34. Silencing of SOX4 (SRY-box transcription factor 4) [SID363994249] came out at: mean correlation with KSR1 profile 0.524; mean distance from KSR1 profile 2.28. CTLA4 (cytotoxic T-lymphocyte associated protein 4) [SID363996137] showed mean correlation with KSR1 profile -0.654; mean distance from KSR1 profile 2.15.

HOXD1 (homeobox D1) [SID364002826] gave mean correlation with KSR1 profile 0.85; mean distance from KSR1 profile 0.919. DLX6 (distal-less homeobox 6) [SID364005580] scored mean correlation with KSR1 profile 0.863; mean distance from KSR1 profile 0.912. LRRC8A (leucine rich repeat containing 8 VRAC subunit A) [SID364001426] scored mean correlation with KSR1 profile -0.324; mean distance from KSR1 profile 2.59.
